In patent EP4786540A1, “POLYMER COMPOSITION AND METHOD FOR PRODUCING SAME, FORMULATION, CROSSLINKED PRODUCT, AND TIRE” (priority 2023, dated 2025):
For at least one compound, name, drawing or mass did not settle the structure.

Experiment: pH of the acid forming the acid component (pH meter, 20°C)
Format: physicochemical
Settings: organic acid 1.0 g in purified water 1.0 L, inorganic acid 0.1-mol/L aqueous solution, for a salt, pH of the acid forming it
Method: No particular limitation is imposed on the acidity of the acid forming the acid component (B), which is specifically the pH of the acid forming the acid component (B) at 20°C, is for example, 1 to 6. […] When the acid component (B) is an inorganic acid, the pH corresponds to a value measured by use of a […] aqueous solution. In the case of a metal salt of the acid, the pH corresponds to the pH of the acid forming the metal salt thereof.
The pH of a liquid prepared by mixing an acid (1.0 g) and purified water (1.0 L) was measured at 20°C by means of a pH meter (product of HORIBA, Ltd.). In the case of an organic acid salt, the pH of the acid forming the salt was measured.
The pH of a 0.1-mol/L aqueous solution of the acid employed was measured at 20°C in the same manner as employed above.

With `CCCCC(CC)COP(=O)(O)OCC(CC)CCCC` (stereo not shown) [b-4, bis(2-ethylhexyl) phosphate] the pH was 3.
